Results are given in words; binding and its absence hold for the method and conditions named. Binding calls can cover weak binding; strength is not graded here. Where a sequence is shown, tags or fusion partners need not be part of it.

This note sets out measurements from paper doi:10.1101/2025.01.16.633295.

For this experiment, the target named is Flag-DIC1B, purified. Kind of experiment: pull-down.

B1: Myc-ANXA7, purified (protein, UniProt Q6IRJ7 1-485)
chain: MSYPGYPPTGYPPFPGYPPAGQESSFPTSGQYPYPSGFPPMGGGAYPPAPSGGYPGAGGYPSPGGYPAPGGYPGTLNPGGPPSYPGGQGFGAPPGGAGFSGYPQPPAQSYGGGPAQVPVPGGFPGGQMPSQYPGGQSPYPGQIDTESFSSYPAFSPVSLDYSSDPAAMTQGTQGTIRPASNFDAMRDAEILRKAMKGFGTDEQAIVDVVSNRSNDQRQQIKAAFKTMYGKDLIKDLKSELSGNMEELILALFMPPTYYDAWSLRKAIQGAGTQERVLIEILCTRTNQEIRDIVRCYQLEFGRELERDIRSDTSGHFERLLVSMCQGNRDESPSINHQMAQEDAQRLYQAGEGRLGTDESCFNMILATRSFPQLRATMEAYSRMANRDLLSSVSREFSGYVESGLKTILQCALNRPAFFAERLYYSMKGAGTDDSTLVRIVVTRSEIDLVQIKQMFTQMYQKTLSTMIASDTSGDYRKLLLAIVGQ
As for B1, the binding entry is on record as “binds”.
